The assay concerns the target M. musculus (heart) complex I (Mus musculus, UniProt P03888+Q91WD5+Q9DC70). It is filed as biochemical. The note with it: read-out: M. musculus complex I IC50. The procedure: Six 8–10-week-old C57Bl/6 female mice (Charles River) were freshly dissected, and their livers and hearts collected into separate 1.5 mL microcentrifuge tubes. Organs were flash-frozen in liquid nitrogen and stored at −80 °C prior to use. The heart of a freshly slaughtered adult cow was obtained from a local abattoir (Peel Sausage Inc.), chopped into ~1-inch cubes and collected into 50 mL falcon tubes. Falcon tubes were flash-frozen in a container of dry ice and stored at −80 °C prior to use. Isolation of mitochondria from all mammalian tissue was carried out following the protocol described above. […]
The enzymatic activities of individual ETC complexes (I-IV) were assessed spectrophotometrically in isolated mitochondria using a Varioskan LUX Multimode plate reader (ThermoFisher Scientific). […] The BCA assay (Walker, 1994) was used to quantify the protein concentration of mitochondria suspensions; solutions were diluted to a concentration of 0.2 mg/mL for use in all assays. […] Immediately following the addition of mitochondria, absorbance was measured (complex I and II: 600 nm; complex III and IV: 550 nm) in 30 s intervals over 15 min. Enzymatic activity was determined in each reaction by plotting absorbance versus time and calculating the slope of the curve during the initial linear phase of the reaction. […]

Chains of the proteins cited; added tags and fusions are not shown. Lines headed by an entry give the natural chain unless they say otherwise; changes in a name come on top. Residues count along the entry.
UniProt P03888: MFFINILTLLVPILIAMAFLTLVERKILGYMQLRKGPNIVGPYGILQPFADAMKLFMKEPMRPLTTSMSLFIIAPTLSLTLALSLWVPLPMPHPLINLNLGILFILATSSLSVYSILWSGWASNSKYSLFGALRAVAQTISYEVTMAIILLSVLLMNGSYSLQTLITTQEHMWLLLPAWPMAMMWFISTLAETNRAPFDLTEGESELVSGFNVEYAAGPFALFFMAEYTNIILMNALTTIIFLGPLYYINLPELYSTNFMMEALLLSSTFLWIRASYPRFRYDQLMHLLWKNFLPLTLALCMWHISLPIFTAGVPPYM
UniProt Q91WD5, 34-463: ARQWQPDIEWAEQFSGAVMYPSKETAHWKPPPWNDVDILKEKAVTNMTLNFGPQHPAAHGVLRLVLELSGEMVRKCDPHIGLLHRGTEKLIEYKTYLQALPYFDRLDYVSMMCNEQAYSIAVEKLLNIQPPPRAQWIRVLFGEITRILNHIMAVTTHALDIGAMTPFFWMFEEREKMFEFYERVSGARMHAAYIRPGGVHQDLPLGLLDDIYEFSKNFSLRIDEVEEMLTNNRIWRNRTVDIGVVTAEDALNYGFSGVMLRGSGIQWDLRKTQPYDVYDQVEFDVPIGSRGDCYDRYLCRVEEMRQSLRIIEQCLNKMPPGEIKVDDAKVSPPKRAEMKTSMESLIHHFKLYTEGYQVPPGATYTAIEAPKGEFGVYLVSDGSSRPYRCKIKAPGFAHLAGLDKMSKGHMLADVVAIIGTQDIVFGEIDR
UniProt Q9DC70, 36-224: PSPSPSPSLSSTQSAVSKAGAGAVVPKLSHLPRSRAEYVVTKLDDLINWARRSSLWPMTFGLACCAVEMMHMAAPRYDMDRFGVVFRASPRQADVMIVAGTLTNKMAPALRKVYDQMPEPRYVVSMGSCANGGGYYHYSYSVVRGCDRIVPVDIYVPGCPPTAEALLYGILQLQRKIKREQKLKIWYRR

As a reminder, the IC50 is the concentration needed to halve the response being measured. For `C=C(C)[C@H]1Cc2c(ccc3c2O[C@@H]2COc4cc(OC)c(OC)cc4[C@@H]2C3=O)O1` [Rotenone, reference compound], the IC50 turned out to be 37 nM.
